Paper PMC11120535
Results are given in words; binding and its absence hold for the method and conditions named. Binding seen in cells or lysates may run through a third protein. Some results given as binding are weak or reduced against the parent protein; the word gives no strength.

The chains behind the UniProt entries cited, without tags or fusion partners.
UniProt P19091: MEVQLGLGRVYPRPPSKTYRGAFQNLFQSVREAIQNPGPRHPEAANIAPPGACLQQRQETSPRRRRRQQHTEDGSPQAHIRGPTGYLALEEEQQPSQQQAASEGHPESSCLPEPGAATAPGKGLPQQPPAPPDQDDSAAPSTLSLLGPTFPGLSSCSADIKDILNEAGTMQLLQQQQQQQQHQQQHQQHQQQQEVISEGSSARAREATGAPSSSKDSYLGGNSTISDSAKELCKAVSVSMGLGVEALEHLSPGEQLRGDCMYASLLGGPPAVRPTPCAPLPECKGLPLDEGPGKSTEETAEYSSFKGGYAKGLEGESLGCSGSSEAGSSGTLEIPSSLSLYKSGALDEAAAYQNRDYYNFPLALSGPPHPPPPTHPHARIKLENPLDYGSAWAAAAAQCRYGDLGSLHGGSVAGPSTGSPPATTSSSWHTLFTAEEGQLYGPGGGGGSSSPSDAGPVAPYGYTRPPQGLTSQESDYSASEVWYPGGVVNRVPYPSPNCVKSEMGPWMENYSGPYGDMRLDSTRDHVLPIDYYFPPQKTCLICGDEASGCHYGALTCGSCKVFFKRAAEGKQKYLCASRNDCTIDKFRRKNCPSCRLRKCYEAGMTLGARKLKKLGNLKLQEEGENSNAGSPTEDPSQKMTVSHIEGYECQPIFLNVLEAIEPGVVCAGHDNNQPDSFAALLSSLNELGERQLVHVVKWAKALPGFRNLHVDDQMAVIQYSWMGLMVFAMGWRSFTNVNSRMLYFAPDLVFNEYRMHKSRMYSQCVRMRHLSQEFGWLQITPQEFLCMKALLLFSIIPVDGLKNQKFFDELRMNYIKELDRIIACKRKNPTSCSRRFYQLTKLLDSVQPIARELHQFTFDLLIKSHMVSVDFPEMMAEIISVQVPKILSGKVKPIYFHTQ

Target: T1, chromodomain Y-like protein (mouse (endogenous in mouse testes)) (UniProt Q9WTK2)
T1 sequence: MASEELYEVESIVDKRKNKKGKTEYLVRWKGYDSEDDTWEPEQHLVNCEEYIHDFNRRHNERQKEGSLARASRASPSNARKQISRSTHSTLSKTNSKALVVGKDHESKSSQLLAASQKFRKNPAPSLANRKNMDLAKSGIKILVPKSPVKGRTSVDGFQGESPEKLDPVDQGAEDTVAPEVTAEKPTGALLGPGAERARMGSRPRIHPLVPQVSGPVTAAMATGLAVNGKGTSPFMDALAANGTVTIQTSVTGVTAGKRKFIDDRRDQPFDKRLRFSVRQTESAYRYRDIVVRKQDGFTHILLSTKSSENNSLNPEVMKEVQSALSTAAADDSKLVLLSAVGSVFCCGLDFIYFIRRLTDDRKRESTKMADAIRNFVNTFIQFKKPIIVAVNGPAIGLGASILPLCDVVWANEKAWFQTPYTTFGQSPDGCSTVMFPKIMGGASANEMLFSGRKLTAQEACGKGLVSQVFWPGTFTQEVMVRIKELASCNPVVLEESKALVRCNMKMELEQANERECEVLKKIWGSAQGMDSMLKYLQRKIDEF
Assay: co-IP; wild-type mouse testes lysate immunoprecipitated with AR or CDYL antibodies (Catch and Release v2.0), IgG as control, 1 mg total protein, salt-free wash buffer, Western blot

androgen receptor (from UniProt P19091 1-899)
binding: binds
